Laboratory results: patent US20250115628A1, “FLUORINATED FLUOROPHORES” (HOWARD HUGHES MEDICAL INSTITUTE, priority 2023, published 2025)

Tested on: ScAMPI (SNAP-tag®-Epac1-HaloTag®) expressed in U2OS cells
Experiment: cAMP FLIM-FRET sensor ScAMPI (fluorescence lifetime imaging)
Format: cell-based
Source text: The Epac-based cAMP sensor “Epac-S^H189”, was obtained from Addgene (Plasmid #170348). This sensor consists of a mTurquoise fluorescent protein and a tdDark Venus protein linked via the Epac1 protein.
To construct the SNAP-tag®-Epac1-HaloTag® sensor, the sequence encoding the tdDark Venus domain in Epac-S^H189 was first replaced with the HaloTag® sequence using Nhe1 and Asc1 fragment ligation (NEB), creating a construct with mTurquoise and HaloTag® flanking the Epac1 domain (i.e, mTurquoise-Epac1-HaloTag®).
A gene block encoding the SNAP-tag® self-labeling protein (IDT) was then used to replace the portion encoding the mTurquoise domain in the mTurquoise-Epac1-HaloTag® using HindIII and AgeI fragment ligation. The sequence of this final plasmid encoding ScAMPI (i.e, SNAP-tag®-Epac1-HaloTag®) was confirmed through sequence analysis (Genewiz).
To evaluate this semisynthetic system in cells, U2OS cells (ATCC) were maintained in DMEM (Corning) containing 10% v/v FBS (ATCC), 1% v/v L-glutamine (Gibco) and 1% v/v Pen/Strep (Gibco). Cells were transfected with plasmid DNA using nucleofection (Lonza) and labeled 48 h post-transfection with 100 nM of JFX612^−SNAP-tag® (88STL) and 200 nM of the JQ645-HaloTag® ligand (65HTL) for 1 h. Cells were washed with 1×PBS (3×) and recovered in fresh medium for 30 min before imaging. Fluorescence lifetime imaging was performed with a Leica SP8 Falcon using LASX software for image acquisition and analysis. […] Fluorescence emission was collected by the HyD detector. The SNAP-tag® donor dye was excited at 610 nm and emission was collected at 620-720 nm. FLIM images were acquired before and 10 min after stimulation with 25 µM forskolin. FLIM data were fitted with two-component exponential fitting function yielding quenched lifetime (τ1) and unquenched lifetime (τ2). Mean amplitude weighted lifetime image (τmean) was calculated by fixing the two lifetimes and performing an image fit for their respective amplitudes (a1 and a2). FRET efficiency was calculated using the mean lifetime obtained in absence (τmean,-forskolin) and (τmean,+forskolin) presence of forskolin as 1^−(τmean,-forskolin/τmean,+forskolin).

Row | SMILES | fluorescence lifetime at rest (ScAMPI labeled with 88STL (donor) and 65HTL (acceptor), FLIM, mean±SD) [ns] | fluorescence lifetime after forskolin (ScAMPI labeled with 88STL and 65HTL, application of forskolin) [ns] | Δτ (ScAMPI labeled with 88STL and 65HTL, ±forskolin) [ns] | fluorescence lifetime, donor fluorophore alone (cells labeled with the JFX612 donor only, FLIM) [ns]
1 | C=C/C=C(C=C)/[N+](C)=C1\C=CC2=C(c3c(F)c(C(=O)NCCOCCOCCCCCCCl)c(F)c(F)c3C(=O)[O-])c3ccc(N(C)c4ccccc4)cc3C(C)(C)C2=C1 [65HTL, JQ645-HaloTag® ligand] | 2.34±0.10 | 3.32±0.18 | 0.98 | –
2 | [2H]C1([2H])N(c2ccc3c(c2)C(C)(C)C2=CC(=[N+]4C([2H])([2H])C([2H])([2H])C([2H])([2H])C4([2H])[2H])C=CC2=C3c2cc(C(=O)NCc3ccc(COc4nc(N)nc5[nH]cnc45)cc3)ccc2C(=O)[O-])C([2H])([2H])C([2H])([2H])C1([2H])[2H] [88STL, JFX612^−SNAP-tag® ligand] | – | – | – | 4.30±0.01
